{"sequences": {"note": "Chains of the proteins cited; added tags and fusions are not shown. Lines headed by an entry give the natural chain unless they say otherwise; changes in a name come on top.", "UniProt F6ZDS4": "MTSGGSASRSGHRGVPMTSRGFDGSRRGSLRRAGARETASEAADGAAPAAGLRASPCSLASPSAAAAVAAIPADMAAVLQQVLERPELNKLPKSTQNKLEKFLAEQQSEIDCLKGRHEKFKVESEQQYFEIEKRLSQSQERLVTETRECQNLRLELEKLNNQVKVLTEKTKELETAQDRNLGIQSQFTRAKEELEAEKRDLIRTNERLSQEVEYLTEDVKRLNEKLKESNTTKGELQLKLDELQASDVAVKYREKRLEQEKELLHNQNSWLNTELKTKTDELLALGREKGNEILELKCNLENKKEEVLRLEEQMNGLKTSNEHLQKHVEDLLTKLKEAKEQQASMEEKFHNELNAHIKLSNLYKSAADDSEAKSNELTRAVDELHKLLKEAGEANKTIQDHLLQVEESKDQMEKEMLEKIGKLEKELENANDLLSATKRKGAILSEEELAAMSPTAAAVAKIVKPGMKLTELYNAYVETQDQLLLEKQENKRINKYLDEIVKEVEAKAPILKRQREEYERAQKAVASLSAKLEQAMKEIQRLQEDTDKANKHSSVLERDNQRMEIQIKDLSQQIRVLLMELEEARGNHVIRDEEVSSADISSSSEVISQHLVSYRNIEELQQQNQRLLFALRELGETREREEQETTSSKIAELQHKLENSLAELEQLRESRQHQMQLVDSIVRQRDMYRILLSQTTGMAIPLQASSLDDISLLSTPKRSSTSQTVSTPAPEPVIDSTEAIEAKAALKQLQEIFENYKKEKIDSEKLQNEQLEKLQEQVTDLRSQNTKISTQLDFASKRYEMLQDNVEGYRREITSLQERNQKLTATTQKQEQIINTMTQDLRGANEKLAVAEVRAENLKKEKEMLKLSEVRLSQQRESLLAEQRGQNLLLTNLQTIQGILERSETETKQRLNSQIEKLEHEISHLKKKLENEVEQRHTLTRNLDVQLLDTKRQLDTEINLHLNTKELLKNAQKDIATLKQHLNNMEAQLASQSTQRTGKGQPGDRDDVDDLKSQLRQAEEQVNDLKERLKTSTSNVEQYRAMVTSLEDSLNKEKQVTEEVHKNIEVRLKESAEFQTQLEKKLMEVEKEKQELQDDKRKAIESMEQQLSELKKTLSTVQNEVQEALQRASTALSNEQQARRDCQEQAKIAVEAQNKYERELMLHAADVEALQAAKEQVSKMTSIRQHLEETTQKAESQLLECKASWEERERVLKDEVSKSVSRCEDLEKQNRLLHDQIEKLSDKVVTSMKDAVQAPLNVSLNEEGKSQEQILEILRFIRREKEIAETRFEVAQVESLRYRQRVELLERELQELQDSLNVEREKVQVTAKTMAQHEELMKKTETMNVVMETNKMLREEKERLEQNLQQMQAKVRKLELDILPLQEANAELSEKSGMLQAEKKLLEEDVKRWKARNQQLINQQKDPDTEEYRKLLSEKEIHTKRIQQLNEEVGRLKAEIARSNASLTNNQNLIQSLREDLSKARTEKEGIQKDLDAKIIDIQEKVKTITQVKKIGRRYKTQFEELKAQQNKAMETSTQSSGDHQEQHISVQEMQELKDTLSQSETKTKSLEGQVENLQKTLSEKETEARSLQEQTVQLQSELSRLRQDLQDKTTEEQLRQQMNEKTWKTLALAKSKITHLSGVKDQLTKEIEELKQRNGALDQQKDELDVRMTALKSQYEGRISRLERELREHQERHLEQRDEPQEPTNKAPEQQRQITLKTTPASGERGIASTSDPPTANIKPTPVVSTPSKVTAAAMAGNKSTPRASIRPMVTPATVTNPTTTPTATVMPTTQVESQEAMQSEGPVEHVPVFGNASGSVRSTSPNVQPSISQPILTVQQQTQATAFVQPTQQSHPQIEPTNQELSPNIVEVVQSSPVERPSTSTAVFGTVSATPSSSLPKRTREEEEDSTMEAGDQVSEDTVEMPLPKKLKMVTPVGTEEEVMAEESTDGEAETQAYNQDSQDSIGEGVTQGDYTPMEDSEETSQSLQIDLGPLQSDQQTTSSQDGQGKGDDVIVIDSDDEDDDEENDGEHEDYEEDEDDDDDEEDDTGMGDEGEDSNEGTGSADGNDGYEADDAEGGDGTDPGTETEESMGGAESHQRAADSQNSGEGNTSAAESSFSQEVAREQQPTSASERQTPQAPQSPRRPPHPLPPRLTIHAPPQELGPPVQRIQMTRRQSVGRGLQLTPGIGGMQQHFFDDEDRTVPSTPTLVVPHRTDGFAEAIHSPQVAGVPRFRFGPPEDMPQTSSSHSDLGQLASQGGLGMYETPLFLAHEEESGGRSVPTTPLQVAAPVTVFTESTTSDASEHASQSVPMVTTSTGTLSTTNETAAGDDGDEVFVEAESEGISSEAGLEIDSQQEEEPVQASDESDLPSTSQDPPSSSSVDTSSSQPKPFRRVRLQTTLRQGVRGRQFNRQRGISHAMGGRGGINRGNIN", "UniProt B7ZMP1": "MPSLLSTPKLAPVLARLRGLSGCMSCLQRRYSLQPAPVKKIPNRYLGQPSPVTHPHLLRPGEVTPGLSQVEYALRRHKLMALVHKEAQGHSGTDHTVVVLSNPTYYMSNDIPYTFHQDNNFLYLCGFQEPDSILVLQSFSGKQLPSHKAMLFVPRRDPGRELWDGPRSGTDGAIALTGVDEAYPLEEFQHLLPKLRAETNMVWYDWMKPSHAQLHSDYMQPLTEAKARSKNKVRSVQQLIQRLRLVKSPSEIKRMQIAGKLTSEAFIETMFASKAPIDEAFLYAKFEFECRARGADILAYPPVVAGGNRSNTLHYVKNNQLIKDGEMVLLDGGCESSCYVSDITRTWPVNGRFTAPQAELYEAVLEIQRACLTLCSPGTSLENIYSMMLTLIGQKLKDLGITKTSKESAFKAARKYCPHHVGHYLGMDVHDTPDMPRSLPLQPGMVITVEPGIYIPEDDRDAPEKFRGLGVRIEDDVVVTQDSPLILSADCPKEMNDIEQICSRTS", "UniProt A2ALU4": "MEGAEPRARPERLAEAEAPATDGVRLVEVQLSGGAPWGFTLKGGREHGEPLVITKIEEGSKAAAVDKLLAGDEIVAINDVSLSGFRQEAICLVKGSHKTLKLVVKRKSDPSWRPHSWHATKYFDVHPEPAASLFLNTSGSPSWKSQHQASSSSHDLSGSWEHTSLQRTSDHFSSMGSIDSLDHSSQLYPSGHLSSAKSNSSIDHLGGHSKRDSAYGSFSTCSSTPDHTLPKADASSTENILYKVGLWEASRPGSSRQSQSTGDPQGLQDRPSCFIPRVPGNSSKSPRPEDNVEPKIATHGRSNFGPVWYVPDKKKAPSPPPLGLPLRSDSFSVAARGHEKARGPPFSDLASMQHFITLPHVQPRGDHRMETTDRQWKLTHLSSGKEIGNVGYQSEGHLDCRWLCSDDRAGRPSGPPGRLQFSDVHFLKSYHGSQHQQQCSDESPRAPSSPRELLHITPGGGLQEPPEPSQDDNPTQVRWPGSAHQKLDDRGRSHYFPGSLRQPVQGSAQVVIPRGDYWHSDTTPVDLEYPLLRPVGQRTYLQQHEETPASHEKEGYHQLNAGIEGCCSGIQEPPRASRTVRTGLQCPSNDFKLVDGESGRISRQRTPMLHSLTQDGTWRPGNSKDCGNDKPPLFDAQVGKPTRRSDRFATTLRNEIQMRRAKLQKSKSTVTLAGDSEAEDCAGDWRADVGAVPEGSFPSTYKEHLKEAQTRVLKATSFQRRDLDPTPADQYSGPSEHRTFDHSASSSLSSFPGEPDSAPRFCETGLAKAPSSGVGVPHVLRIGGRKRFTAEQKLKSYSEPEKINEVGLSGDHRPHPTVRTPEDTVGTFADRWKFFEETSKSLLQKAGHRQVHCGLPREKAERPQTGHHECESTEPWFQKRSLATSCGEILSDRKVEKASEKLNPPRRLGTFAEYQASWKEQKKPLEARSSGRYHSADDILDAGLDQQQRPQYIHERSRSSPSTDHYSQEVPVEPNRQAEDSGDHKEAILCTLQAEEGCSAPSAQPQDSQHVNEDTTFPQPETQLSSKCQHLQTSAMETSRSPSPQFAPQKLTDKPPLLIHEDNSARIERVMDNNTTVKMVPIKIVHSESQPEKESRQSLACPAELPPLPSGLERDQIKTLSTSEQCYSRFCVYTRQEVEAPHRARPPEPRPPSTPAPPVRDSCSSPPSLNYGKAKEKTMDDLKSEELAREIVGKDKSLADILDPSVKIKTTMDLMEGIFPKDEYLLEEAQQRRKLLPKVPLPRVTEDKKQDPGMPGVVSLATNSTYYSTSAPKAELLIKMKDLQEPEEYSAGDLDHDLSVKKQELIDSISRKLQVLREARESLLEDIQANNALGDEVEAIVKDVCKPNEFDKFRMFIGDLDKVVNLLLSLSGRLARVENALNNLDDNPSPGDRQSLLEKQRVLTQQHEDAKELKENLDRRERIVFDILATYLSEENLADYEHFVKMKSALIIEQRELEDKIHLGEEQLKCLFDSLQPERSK", "UniProt B1AY10": "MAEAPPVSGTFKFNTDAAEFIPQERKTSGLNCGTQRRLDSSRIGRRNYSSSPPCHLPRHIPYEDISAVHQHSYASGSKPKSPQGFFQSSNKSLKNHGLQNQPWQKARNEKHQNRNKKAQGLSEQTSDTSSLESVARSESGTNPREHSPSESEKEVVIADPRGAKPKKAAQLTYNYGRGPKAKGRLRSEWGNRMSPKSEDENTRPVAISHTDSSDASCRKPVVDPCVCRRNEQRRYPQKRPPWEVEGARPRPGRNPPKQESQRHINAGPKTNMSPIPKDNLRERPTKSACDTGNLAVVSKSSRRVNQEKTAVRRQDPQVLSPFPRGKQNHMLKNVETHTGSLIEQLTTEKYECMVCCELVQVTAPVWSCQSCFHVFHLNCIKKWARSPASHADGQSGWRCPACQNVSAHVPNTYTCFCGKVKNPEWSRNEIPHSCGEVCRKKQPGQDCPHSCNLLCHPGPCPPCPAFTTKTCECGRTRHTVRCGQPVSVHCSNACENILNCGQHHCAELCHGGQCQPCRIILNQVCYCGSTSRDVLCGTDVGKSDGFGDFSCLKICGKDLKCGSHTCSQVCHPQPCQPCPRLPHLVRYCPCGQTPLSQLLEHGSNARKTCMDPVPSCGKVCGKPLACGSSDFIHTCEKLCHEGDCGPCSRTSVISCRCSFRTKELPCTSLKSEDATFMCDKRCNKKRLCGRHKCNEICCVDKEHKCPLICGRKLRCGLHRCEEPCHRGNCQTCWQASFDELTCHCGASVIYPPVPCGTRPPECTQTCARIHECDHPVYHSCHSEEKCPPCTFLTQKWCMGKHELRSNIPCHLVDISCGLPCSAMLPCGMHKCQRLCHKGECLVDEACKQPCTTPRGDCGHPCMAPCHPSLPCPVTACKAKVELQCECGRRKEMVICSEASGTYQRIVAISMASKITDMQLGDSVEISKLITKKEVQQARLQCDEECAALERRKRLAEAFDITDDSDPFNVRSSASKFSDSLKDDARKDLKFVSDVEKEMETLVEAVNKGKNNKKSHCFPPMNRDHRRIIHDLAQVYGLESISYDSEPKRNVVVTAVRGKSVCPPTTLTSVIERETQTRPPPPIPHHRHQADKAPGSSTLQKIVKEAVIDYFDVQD", "UniProt A2AMZ4": "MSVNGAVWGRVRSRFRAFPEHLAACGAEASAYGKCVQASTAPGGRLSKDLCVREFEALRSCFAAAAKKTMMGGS", "UniProt A6X935": "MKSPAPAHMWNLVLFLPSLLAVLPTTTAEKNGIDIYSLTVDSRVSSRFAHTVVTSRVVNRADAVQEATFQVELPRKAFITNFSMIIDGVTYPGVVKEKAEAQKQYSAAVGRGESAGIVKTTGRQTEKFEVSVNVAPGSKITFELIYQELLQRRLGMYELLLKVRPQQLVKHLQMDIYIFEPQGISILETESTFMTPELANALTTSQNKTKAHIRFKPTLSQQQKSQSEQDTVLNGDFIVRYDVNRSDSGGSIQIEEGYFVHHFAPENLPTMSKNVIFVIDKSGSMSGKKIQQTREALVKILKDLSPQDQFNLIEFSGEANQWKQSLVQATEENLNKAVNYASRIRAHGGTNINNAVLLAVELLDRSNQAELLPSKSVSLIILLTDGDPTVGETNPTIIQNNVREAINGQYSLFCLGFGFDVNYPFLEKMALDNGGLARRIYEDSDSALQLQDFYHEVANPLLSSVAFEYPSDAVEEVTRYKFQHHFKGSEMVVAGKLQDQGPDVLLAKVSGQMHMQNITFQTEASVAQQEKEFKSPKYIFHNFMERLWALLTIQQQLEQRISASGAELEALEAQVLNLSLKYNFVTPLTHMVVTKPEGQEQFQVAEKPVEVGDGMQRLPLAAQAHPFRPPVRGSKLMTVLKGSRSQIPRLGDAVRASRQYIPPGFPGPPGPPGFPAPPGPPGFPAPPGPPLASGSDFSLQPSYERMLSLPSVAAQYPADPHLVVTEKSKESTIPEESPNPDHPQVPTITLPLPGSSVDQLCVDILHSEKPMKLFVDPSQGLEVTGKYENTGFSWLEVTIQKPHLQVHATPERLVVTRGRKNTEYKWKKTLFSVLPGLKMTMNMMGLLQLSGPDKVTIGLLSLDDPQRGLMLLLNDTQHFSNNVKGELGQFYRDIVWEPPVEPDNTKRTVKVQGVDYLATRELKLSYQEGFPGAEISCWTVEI"}, "source": "the supplement of paper PMC12819154", "about": "“High-throughput peptide-centric local stability assay extends protein–ligand identification to membrane proteins, tissues and bacteria” (Nature Structural & Molecular Biology, 2025)", "note": "This is one part of the list. Most values lie at the level of the controls, where differences are scatter.", "data": [{"compound": "CN[C@@H]1C[C@H]2O[C@@](C)([C@@H]1OC)n1c3ccccc3c3c4c(c5c6ccccc6n2c5c31)C(=O)NC4 [staurosporine]", "experiment": "log2 fold change of pooled soluble protein (PISA), ligand vs vehicle (log2 ratio); higher = more thermally stabilized", "conditions": "ligand concentration: 20 uM; assay format: PISA pool 52.9/55.5/58.6 C", "values": [{"target": "UniProt B8ZXI1", "log2 fold change of pooled soluble protein": -0.033}, {"target": "UniProt A6H5X4", "log2 fold change of pooled soluble protein": -0.0375}, {"target": "UniProt B1AZI6", "log2 fold change of pooled soluble protein": -0.0477}, {"target": "UniProt D3Z6Q9", "log2 fold change of pooled soluble protein": -0.0717}, {"target": "UniProt A2ARZ3", "log2 fold change of pooled soluble protein": -0.0553}, {"target": "UniProt F6ZDS4", "log2 fold change of pooled soluble protein": -0.03}, {"target": "UniProt A6H6A9", "log2 fold change of pooled soluble protein": -0.000584}, {"target": "UniProt A2AJL3", "log2 fold change of pooled soluble protein": 0.148}, {"target": "UniProt E9PVA8", "log2 fold change of pooled soluble protein": -0.338}, {"target": "UniProt E9Q634", "log2 fold change of pooled soluble protein": 0.0169}, {"target": "UniProt E9Q3L2", "log2 fold change of pooled soluble protein": -0.172}, {"target": "UniProt A2A7S8", "log2 fold change of pooled soluble protein": -0.0146}, {"target": "UniProt A2ASZ8", "log2 fold change of pooled soluble protein": -0.0354}, {"target": "UniProt A2AWA9", "log2 fold change of pooled soluble protein": -0.142}, {"target": "UniProt B7ZMP1", "log2 fold change of pooled soluble protein": -0.052}, {"target": "UniProt A2AQ19", "log2 fold change of pooled soluble protein": -0.0341}, {"target": "UniProt A2ALU4", "log2 fold change of pooled soluble protein": -0.0775}, {"target": "UniProt B1AY10", "log2 fold change of pooled soluble protein": -0.261}, {"target": "UniProt D3Z5L6", "log2 fold change of pooled soluble protein": 0.0851}, {"target": "UniProt F8VPK0", "log2 fold change of pooled soluble protein": -0.152}, {"target": "UniProt A2AMZ4", "log2 fold change of pooled soluble protein": -0.0962}, {"target": "UniProt A2AJT4", "log2 fold change of pooled soluble protein": -0.154}, {"target": "UniProt E9Q414", "log2 fold change of pooled soluble protein": 0.00212}, {"target": "UniProt B2RRE7", "log2 fold change of pooled soluble protein": 0.00395}, {"target": "UniProt E9Q5C9", "log2 fold change of pooled soluble protein": -0.0318}, {"target": "UniProt A6X935", "log2 fold change of pooled soluble protein": 0.00931}, {"target": "UniProt B1AZP2", "log2 fold change of pooled soluble protein": 0.0618}, {"target": "UniProt A9JSM3", "log2 fold change of pooled soluble protein": 0.0924}, {"target": "A0A0G2JDV3, A0A0G2JDV3", "log2 fold change of pooled soluble protein": -0.00912}, {"target": "UniProt A6X919", "log2 fold change of pooled soluble protein": -0.173}, {"target": "UniProt A2AWR3", "log2 fold change of pooled soluble protein": 0.084}, {"target": "UniProt A2A8L5", "log2 fold change of pooled soluble protein": 0.0232}, {"target": "UniProt F6XLV1", "log2 fold change of pooled soluble protein": 0.0844}]}]}
